For at least one entry, the source does not settle the construct or the ends of the probe. Where cells or extracts were used, other partners may take part.
Tests used:
[1] = tested on: FIZ1 (Flt3-interacting zinc finger 1), in retinal nuclear complex + NRL (neural retina leucine zipper); experiment: EMSA, antibody removal of band; details: bovine retina nuclear extract, anti-bFIZ1 removed the higher complex, preimmune IgG did not, cold probe competed; 20 mM Tris-HCl pH 7.5, 100 mM NaCl, 2 mM MgCl2, 1 mM EDTA, 1 mM DTT, 1 ug poly-dI-dC, 8% glycerol, 21 C, 30 min; 20 fmol probe, 5 ug nuclear extract; protein in an extract; label: 5'-32P
[2] = tested on: FIZ1 (Flt3-interacting zinc finger 1), in retinal nuclear complex + CRX (cone-rod homeobox); experiment: EMSA, antibody removal of band; details: bovine retina nuclear extract, 20 mM Tris-HCl pH 7.5, 100 mM NaCl, 2 mM MgCl2, 1 mM EDTA, 1 mM DTT, 1 ug poly-dI-dC, 8% glycerol, 21 C, 30 min, 20 fmol probe, 5 ug nuclear extract, protein in an extract, label: 5'-32P

CAGATGCTGATTCAGCCAGGAGCT (double strand) [NRE (NRL-response element, Rhodopsin promoter)]
binding result [1]: binds

GCAGCAGTGAGGATTAATATGATTAATAACG (double strand) [BAT-1 (CRX-binding element, Rhodopsin promoter)]
binding result ([2]; anti-bFIZ1 abolished the third, highest band, two lower CRX bands unaffected): binds

GGGAGCTTAGGGAGGGGAGG (double strand) [Ret-4 (CRX-binding element, Rhodopsin promoter)]
binding result ([2]; anti-bFIZ1 removed the shifted band, preimmune IgG did not): binds

Reference: PMC2571102
